Assay results: article PMC4775227, “Molecular mechanism of thermosensory function of human heat shock transcription factor Hsf1” (eLife, 2016)
No constants are given. Whether binding was seen depends on the method and setting. Some entries that bind do so weakly or less than the wild type. Each block holds one molecule with its values, some of them ahead of it.

Assays:
[1] = target: human heat shock transcription factor Hsf1, wild type (human) (UniProt Q00613); assay: condition: only monomeric SEC fraction without heat shock; native gel or EMSA; blue native polyacrylamide gel; monomeric SEC fraction of Hsf1 without heat shock (0°C control); both purified
[2] = target: T1, human heat shock transcription factor Hsf1, wild type (human), Q00613; assay: HDX-MS; 5 µM Hsf1 or mutant in Hsf1-buffer pre-incubated 10 or 30 min at 20-42°C, diluted 1:20 into D2O buffer, 30 s at 20°C, quenched, online pepsin, LC-MS; both purified; conditions: remark: other sources report otherwise
T1 chain: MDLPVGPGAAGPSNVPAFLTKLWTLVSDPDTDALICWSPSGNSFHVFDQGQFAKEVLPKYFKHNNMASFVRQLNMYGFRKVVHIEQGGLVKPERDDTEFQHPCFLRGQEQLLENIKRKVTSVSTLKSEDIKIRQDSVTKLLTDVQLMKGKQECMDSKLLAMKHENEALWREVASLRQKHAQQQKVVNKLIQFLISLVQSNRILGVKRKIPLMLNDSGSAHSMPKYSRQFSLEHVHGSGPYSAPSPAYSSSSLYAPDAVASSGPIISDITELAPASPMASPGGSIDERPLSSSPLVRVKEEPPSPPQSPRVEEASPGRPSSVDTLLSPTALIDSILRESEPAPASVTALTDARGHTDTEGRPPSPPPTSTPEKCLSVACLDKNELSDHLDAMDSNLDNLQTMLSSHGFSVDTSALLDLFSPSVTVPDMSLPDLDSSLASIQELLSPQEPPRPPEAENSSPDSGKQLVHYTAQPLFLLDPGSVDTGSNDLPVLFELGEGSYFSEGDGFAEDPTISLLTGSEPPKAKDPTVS

- binding [1]: no binding
Molecule: human heat shock transcription factor Hsf1, wild type (from UniProt Q00613 1-529)

- binding [2]: binds
B1: human heat shock transcription factor Hsf1, wild type, Q00613 1-529 (natural protein)
chain: T1 chain
